We go through one sequence from article PMC10711553.

Protein sequences, listed by entry. Tags and fused reporters are not part of them. Residues count along the entry.
UniProt Q9UKK3, 1-573: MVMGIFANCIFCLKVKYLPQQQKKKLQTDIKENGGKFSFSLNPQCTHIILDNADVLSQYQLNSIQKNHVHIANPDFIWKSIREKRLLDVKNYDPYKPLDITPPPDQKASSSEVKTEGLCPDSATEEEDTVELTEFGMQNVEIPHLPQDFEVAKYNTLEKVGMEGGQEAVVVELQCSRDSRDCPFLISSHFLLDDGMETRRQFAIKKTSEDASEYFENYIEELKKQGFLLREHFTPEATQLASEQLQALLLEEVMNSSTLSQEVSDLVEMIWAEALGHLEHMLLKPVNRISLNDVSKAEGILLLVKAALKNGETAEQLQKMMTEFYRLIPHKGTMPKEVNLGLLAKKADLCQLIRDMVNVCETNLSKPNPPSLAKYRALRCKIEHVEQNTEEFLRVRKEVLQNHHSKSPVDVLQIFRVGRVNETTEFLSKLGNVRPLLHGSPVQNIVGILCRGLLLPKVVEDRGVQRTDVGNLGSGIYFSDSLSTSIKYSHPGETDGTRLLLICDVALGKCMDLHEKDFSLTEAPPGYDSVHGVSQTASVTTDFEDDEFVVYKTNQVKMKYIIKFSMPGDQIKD

The exact form of at least one protein or probe is not confirmed. Weaker means in comparison with the reference protein, sequence or condition of that experiment.

The data set addresses PARP4 BRCT-WGR-CAT (Homo sapiens) (UniProt Q9UKK3). The experiment in a line: EMSA. To be noted: very weak, at highest concentration tested; EMSA: same but 20% glycerol, 100 nM nucleic acid, room temperature 30 min, gel at 4 C in Tris-glycine; recombinant protein; protein details: N-terminal His-SUMO tag, cleaved with TEV; label: 5'-Cy3; single-stranded DNA.

On to “CAGATCTACCGAATCAGTCCGACGACGCATCTGCACTACGAGGATAC [47-nt ssDNA, Cy3]”, for which the binding result is “binds more weakly”.
